Measurements: the supplement of paper PMC4604168 (melanoma cell lines)
The list shows a part of the results. Single values are uncertain, as repeats are few or missing.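 Cells were imaged in 1,536-well plates, and nuclei stained with an antibody against cleaved PARP were counted against all DNA-stained nuclei to give the apoptosis fraction. Screening doses were chosen to leave most cells alive, and resting and induced cleaved-PARP levels differ strongly between cell lines.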

How the values were obtained:
Assay in all cases: cleaved PARP positive nuclei fraction relative to DMSO control; melanoma cells; higher = more apoptosis
Details in all cases: library dose: low library concentration; 72 h
[1] = system: MZ2-MEL
[2] = system: MeWo
[3] = system: RPMI7951
[4] = system: RVH-421
[5] = system: SkMel28
[6] = system: SkMel2
[7] = system: SkMel30
[8] = system: UACC62
[9] = system: WM115
[10] = system: WM1716
[11] = system: WM1745
[12] = system: WM3526
[13] = system: WM3619
[14] = system: WM451Lu

| Structure (SMILES) | cleaved PARP positive nuclei fraction [1] | cleaved PARP positive nuclei fraction [2] | cleaved PARP positive nuclei fraction [3] | cleaved PARP positive nuclei fraction [4] | cleaved PARP positive nuclei fraction [5] | cleaved PARP positive nuclei fraction [6] | cleaved PARP positive nuclei fraction [7] | cleaved PARP positive nuclei fraction [8] | cleaved PARP positive nuclei fraction [9] | cleaved PARP positive nuclei fraction [10] | cleaved PARP positive nuclei fraction [11] | cleaved PARP positive nuclei fraction [12] | cleaved PARP positive nuclei fraction [13] | cleaved PARP positive nuclei fraction [14] |
| --- | --- | --- | --- | --- | --- | --- | --- | --- | --- | --- | --- | --- | --- | --- |
| Cc1cc(Nc2cc(N3CCN(C)CC3)nc(/C=C/c3ccccc3)n2)n[nH]1 + Nc1ncn([C@H]2C[C@H](O)[C@@H](CO)O2)c(=O)n1 [decitabine] (first compound 0.04 µM, partner dose 0.1 µM) | 96% | 39.7% | 58.4% | 59.2% | 75.6% | 83.8% | 69.3% | 75.9% | 160% | 99.4% | 93.5% | 42.7% | 99.5% | 67% |
| Cn1c(=O)n(-c2ccc(C(C)(C)C#N)cc2)c2c3cc(-c4cnc5ccccc5c4)ccc3ncc21 + C=C(c1ccc(C(=O)O)cc1)c1cc2c(cc1C)C(C)(C)CCC2(C)C [Bexarotene] (first compound 0.004 µM, partner dose 2 µM) | 94.1% | 71% | 95.2% | 229% | 50.3% | 86.7% | 59.2% | 260% | 121% | 81.1% | 102% | 55.2% | 86.6% | 104% |
| Cn1c(=O)n(-c2ccc(C(C)(C)C#N)cc2)c2c3cc(-c4cnc5ccccc5c4)ccc3ncc21 + Cc1nc(Nc2ncc(C(=O)Nc3c(C)cccc3Cl)s2)cc(N2CCN(CCO)CC2)n1 [dasatanib] (first compound 0.004 µM, partner dose 0.004 µM) | 53.3% | 84.7% | 147% | 105% | 101% | 49.9% | 108% | 123% | 173% | 91.1% | 121% | 117% | 102% | 125% |
| CNC(=O)c1cc(Oc2ccc(NC(=O)Nc3ccc(Cl)c(C(F)(F)F)c3)cc2)ccn1 [sorafenib] + CCCS(=O)(=O)Nc1ccc(F)c(C(=O)c2c[nH]c3ncc(Cl)cc23)c1F [PLX4720] (first compound 0.4 µM, partner dose 0.08 µM) | 84.5% | 121% | 55.3% | 73.2% | 57.6% | 102% | 50.1% | 206% | 120% | 128% | 92.9% | 117% | 85.4% | 87.4% |
| O=C(O)[C@@H]1[O][Sb](=[O])([O][Sb]2(=[O])[O][C@H]([C@H](O)CO)[C@H](O)[C@H](C(=O)O)[O]2)[O][C@H]([C@H](O)CO)[C@@H]1O (stereo partly specified) [stibogluconate] + Nc1nc(F)nc2c1ncn2[C@@H]1O[C@H](CO)[C@@H](O)[C@@H]1O [fludarabine] (first compound 2 µM, partner dose 0.2 µM) | 208% | 448% | 241% | 85.4% | 40.6% | 382% | 1170% | 52.3% | 130% | 51.3% | 168% | 256% | 97% | 137% |
| Cc1cc(Nc2cc(N3CCN(C)CC3)nc(/C=C/c3ccccc3)n2)n[nH]1 + Clc1ccc(Nc2nnc(Cc3ccncc3)c3ccccc23)cc1 [vatalanib] (first compound 0.04 µM, partner dose 2 µM) | 50.9% | 143% | 81.8% | 83.5% | 27.7% | 69.4% | 34.8% | 92.6% | 172% | 73.3% | 109% | 79.2% | 95.4% | 189% |
| Cc1cc(Nc2cc(N3CCN(C)CC3)nc(/C=C/c3ccccc3)n2)n[nH]1 + CC(=O)c1c(C)c2cnc(Nc3ccc(N4CCNCC4)cn3)nc2n(C2CCCC2)c1=O [palbociclib] (first compound 0.04 µM, partner dose 0.04 µM) | 55.1% | 72.7% | 242% | 277% | 88.3% | 57.5% | 101% | 185% | 81.3% | 91.3% | 141% | 129% | 117% | 64.6% |
| Cn1c(=O)n(-c2ccc(C(C)(C)C#N)cc2)c2c3cc(-c4cnc5ccccc5c4)ccc3ncc21 + Nc1nc(F)nc2c1ncn2[C@@H]1O[C@H](CO)[C@@H](O)[C@@H]1O [fludarabine] (first compound 0.004 µM, partner dose 0.2 µM) | 96.7% | 579% | 95.9% | 52.6% | 95.4% | 802% | 1590% | 160% | 155% | 82.3% | 96.8% | 226% | 110% | 68.1% |
| O=C(O)[C@@H]1[O][Sb](=[O])([O][Sb]2(=[O])[O][C@H]([C@H](O)CO)[C@H](O)[C@H](C(=O)O)[O]2)[O][C@H]([C@H](O)CO)[C@@H]1O (stereo partly specified) [stibogluconate] + CCCS(=O)(=O)Nc1ccc(F)c(C(=O)c2c[nH]c3ncc(Cl)cc23)c1F [PLX4720] (first compound 2 µM, partner dose 0.08 µM) | 30.1% | 72.3% | 146% | 90.3% | 76.4% | 175% | 92.9% | 79.3% | 104% | 115% | 95.2% | 165% | 97.5% | 174% |
